Chains of the proteins cited; added tags and fusions are not shown.
UniProt Q6P5H2: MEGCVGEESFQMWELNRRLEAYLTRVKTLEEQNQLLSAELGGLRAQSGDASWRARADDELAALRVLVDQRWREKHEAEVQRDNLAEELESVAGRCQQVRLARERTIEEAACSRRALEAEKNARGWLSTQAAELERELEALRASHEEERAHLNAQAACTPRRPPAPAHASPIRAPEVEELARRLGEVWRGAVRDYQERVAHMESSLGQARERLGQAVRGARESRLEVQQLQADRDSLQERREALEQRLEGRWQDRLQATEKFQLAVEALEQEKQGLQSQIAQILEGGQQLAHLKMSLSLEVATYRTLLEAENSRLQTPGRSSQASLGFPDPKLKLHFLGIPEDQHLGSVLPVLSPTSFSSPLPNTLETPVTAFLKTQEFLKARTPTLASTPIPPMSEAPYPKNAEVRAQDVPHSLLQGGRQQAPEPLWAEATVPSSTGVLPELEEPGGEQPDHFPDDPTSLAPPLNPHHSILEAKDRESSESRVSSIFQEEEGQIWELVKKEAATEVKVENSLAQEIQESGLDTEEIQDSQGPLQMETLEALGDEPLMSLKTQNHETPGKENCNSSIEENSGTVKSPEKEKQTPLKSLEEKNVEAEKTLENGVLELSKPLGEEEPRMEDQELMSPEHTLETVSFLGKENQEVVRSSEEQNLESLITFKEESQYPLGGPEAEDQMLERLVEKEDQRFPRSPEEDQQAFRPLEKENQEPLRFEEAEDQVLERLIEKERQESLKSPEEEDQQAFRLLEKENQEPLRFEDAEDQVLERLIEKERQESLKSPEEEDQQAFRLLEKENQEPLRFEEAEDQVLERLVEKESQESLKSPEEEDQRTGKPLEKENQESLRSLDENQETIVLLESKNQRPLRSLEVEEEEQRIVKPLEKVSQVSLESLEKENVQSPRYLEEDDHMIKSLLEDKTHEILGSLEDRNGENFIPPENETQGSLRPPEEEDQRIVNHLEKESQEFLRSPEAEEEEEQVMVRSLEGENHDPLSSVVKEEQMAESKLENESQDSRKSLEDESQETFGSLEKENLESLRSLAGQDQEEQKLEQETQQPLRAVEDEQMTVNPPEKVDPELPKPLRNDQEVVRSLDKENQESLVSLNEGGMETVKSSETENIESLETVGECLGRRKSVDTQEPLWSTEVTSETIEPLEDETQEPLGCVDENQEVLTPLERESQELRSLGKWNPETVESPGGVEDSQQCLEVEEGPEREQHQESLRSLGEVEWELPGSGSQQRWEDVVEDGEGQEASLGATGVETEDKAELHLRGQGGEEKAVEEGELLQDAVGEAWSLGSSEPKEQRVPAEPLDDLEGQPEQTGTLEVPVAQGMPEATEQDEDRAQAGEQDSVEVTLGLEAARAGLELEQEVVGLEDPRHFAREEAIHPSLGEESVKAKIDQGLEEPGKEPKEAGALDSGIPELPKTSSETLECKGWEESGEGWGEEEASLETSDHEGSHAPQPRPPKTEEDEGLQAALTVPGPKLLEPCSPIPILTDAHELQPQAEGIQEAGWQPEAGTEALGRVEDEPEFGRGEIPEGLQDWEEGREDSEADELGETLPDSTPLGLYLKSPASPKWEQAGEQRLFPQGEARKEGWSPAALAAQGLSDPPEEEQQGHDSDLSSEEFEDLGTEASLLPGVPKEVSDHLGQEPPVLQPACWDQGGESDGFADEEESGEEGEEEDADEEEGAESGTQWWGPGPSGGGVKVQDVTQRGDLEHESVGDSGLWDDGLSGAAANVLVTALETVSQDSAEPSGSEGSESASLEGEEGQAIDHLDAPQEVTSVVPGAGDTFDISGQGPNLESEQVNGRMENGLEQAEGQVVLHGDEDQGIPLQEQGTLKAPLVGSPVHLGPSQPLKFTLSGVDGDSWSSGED
UniProt Q80X90: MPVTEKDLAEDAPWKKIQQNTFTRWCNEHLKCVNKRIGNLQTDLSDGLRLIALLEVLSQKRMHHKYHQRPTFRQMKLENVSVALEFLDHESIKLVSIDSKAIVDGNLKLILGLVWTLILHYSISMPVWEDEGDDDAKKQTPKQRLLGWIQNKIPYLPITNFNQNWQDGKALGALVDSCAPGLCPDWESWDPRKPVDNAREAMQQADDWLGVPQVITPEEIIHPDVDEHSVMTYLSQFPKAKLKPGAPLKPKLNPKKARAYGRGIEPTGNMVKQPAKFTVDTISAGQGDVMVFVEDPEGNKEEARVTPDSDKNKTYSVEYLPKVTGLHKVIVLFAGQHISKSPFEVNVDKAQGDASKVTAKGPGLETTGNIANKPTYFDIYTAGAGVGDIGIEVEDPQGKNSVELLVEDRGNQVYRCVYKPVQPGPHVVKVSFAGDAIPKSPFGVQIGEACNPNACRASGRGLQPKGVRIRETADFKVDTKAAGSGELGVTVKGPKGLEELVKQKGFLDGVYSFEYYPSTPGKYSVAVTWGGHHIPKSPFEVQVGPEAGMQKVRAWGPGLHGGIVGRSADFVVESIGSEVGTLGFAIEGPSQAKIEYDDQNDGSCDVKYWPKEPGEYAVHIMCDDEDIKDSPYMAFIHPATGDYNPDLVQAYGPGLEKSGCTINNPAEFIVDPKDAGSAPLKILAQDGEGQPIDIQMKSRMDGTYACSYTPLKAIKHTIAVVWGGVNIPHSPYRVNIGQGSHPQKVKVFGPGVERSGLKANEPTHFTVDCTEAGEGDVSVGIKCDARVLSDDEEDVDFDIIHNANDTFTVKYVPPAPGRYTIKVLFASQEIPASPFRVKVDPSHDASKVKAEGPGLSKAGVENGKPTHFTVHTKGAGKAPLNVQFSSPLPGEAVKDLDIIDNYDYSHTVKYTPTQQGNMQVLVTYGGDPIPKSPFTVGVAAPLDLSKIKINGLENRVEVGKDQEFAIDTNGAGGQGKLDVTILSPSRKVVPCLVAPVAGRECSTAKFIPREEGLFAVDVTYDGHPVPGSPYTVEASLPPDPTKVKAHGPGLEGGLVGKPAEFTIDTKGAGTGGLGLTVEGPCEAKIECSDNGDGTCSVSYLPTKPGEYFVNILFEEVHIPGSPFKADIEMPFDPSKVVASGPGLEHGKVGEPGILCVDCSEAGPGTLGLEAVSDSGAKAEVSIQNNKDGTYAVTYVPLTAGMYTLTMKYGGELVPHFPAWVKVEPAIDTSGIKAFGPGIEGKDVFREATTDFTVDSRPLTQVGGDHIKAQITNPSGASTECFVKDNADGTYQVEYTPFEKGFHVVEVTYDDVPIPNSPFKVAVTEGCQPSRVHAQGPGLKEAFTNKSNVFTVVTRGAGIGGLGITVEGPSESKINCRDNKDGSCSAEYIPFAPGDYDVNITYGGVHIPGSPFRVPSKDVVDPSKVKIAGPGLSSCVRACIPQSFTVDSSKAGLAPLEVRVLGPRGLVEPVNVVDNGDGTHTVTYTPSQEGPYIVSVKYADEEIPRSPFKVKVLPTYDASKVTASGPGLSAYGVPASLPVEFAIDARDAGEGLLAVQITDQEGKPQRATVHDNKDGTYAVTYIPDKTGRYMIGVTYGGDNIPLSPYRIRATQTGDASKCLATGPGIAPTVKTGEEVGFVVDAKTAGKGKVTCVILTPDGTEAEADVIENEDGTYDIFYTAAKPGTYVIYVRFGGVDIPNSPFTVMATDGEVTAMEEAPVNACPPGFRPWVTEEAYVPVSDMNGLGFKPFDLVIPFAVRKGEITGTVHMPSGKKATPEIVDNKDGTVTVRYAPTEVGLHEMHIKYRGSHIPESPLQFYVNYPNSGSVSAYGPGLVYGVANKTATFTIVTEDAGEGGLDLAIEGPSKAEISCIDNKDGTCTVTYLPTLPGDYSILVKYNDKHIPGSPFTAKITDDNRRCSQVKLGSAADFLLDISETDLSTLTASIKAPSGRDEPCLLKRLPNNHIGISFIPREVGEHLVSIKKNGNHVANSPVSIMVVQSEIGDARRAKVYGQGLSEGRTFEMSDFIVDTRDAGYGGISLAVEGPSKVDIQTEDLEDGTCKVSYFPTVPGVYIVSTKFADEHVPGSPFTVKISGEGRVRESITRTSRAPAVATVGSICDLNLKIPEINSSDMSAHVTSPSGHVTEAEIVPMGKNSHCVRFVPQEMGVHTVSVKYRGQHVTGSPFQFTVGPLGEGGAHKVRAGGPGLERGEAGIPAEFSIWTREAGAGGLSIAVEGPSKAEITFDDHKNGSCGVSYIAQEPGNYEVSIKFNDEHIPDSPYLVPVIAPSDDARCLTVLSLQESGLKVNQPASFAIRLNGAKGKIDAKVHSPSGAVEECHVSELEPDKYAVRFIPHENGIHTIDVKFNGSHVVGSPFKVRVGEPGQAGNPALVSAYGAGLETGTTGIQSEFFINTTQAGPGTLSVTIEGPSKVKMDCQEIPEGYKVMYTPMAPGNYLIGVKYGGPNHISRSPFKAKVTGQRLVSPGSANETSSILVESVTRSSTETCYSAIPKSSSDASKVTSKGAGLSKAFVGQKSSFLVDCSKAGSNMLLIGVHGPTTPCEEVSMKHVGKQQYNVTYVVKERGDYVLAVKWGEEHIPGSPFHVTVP
UniProt Q61879: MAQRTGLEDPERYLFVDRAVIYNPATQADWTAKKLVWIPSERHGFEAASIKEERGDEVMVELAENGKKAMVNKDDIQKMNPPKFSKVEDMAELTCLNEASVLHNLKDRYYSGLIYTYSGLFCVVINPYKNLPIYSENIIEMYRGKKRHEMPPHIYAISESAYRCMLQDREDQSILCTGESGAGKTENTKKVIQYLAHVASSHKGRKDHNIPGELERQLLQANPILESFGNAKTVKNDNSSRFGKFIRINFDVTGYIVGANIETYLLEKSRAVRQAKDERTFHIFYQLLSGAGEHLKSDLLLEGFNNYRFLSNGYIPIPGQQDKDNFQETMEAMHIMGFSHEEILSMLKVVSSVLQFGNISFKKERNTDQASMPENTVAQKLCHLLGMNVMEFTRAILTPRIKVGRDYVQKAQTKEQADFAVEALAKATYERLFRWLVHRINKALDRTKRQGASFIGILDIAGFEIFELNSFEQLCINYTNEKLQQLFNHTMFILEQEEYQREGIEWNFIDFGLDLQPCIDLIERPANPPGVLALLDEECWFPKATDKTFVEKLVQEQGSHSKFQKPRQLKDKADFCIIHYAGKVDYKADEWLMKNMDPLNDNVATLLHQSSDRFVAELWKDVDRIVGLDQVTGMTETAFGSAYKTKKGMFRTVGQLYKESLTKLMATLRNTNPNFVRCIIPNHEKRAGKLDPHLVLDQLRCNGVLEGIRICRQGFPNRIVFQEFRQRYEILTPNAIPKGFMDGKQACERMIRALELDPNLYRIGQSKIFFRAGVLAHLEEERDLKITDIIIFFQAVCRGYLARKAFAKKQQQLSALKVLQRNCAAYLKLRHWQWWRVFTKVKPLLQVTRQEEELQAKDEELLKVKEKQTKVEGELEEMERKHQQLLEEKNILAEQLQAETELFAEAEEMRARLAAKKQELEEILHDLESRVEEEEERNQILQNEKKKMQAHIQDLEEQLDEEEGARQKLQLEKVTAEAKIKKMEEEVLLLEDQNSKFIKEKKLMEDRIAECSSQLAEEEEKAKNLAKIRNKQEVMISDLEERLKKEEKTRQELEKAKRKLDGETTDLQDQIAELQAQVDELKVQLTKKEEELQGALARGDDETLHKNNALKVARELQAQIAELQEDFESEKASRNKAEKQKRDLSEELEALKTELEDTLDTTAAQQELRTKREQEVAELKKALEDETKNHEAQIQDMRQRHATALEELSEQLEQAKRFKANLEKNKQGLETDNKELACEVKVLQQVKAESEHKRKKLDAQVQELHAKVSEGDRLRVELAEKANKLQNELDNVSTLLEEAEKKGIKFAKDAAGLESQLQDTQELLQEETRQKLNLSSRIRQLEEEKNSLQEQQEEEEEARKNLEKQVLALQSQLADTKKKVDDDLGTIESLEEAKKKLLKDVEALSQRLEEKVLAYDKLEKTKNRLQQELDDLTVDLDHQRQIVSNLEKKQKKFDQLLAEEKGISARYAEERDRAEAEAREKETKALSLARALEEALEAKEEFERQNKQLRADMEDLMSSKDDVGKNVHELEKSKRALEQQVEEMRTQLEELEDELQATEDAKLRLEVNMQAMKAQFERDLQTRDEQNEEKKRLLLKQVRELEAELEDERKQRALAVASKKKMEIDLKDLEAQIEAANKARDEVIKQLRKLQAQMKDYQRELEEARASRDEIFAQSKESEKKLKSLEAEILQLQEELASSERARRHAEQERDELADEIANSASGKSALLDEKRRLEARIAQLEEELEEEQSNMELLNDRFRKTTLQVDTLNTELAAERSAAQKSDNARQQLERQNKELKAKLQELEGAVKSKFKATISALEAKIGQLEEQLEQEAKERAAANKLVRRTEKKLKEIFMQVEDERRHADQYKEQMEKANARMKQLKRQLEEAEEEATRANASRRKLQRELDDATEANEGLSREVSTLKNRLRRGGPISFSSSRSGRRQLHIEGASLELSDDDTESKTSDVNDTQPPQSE

In PMC12179588:

target: T1, full-length hAPE2 bearing 3 FLAG tags (human) (UniProt Q9UBZ4); test: affinity purification with mass spectrometry; HEI-OC1 cells transfected with PMEV-3FLAG-hAPE2; FLAG tag antibody pull-down, anti-IgG as control; SDS-PAGE bands digested in gel, LC/MS; hits at least five spectral counts and more than 2.5-fold over control
T1 sequence: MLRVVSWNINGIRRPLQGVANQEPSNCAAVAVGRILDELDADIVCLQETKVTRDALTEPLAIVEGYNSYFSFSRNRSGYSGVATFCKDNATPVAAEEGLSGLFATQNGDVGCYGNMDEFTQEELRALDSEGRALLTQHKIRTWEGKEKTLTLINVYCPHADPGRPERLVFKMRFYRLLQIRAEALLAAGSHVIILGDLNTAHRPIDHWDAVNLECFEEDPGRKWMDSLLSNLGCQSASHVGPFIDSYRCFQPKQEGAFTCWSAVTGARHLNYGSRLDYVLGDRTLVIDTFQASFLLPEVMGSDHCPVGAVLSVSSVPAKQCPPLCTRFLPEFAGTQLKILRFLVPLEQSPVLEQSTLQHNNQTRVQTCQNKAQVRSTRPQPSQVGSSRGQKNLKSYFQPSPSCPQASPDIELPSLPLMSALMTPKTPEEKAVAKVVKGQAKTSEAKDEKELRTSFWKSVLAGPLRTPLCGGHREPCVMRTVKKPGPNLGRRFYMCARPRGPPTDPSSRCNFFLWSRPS

Row | binding | Substance
1 | binds | Nes (from UniProt Q6P5H2 1-1864)
2 | binds | Flnb (from UniProt Q80X90 1-2602)
3 | binds | Plec (from UniProt Q9QXS1 1-4691)
4 | binds | MYH10 (endogenous, HEI-OC1) (from UniProt Q61879 1-1976)
5 | binds | Iqgap1 (from UniProt Q9JKF1 1-1657)

No constants are given. Whether binding was seen depends on the method and setting. In cells and extracts the contact can be indirect. These calls come from enrichment with a bait or labelling near it, and not all partners need be listed. Where a sequence is shown, tags or fusion partners need not be part of it.
